Consider 42 sequences from article PMC7819943, “Rice protein-binding microarrays: a tool to detect cis-acting elements near promoter regions in rice”.

The chains behind the UniProt entries cited, without tags or fusion partners.
UniProt Q0JBA9, entry or part of it: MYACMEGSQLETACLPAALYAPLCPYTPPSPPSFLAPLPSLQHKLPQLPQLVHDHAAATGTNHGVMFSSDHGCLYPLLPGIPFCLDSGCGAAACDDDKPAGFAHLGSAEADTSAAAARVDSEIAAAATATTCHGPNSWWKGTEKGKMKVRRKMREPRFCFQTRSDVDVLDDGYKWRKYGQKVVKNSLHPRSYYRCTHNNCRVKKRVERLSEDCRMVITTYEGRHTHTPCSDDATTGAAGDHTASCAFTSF

The list shows a part of the results.

This assay concerns the target OsWRKY34 (Oryza sativa, UniProt Q0JBA9 1-250). The experiment in a line: protein-binding microarray (RPBM); PBS, 2% BSA, 51.3 ng/ul salmon testes DNA, 50 uM zinc acetate, 200 nM TF, 25 C, 1 h; high values mean tight binding. The note with it: protein: recombinant; tags: N-terminal polyhistidine and DsRed monomer fusion (pET32a); label: CyDye5-dUTP incorporated in the synthesized complementary strand; 3' TTTTT single-stranded linker to array surface; dsDNA, one strand shown. A digest of the protocol: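 Per-feature fluorescence intensity (arbitrary units), read on an Axon 4000B scanner, is the binding signal. Transcription factors carrying an N-terminal polyhistidine tag and DsRed fusion were expressed in E. coli BL21-CodonPlus and purified on Ni–NTA. A custom Agilent array, made double-stranded by primer extension with Cy5-dUTP and blocked with 2% BSA, was incubated with 200 nM protein in PBS, 2% BSA, salmon testes DNA and 50 µM zinc acetate at 25 °C for 1 h and then washed.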
“GGATGGGTTATATCTAGTATTGTGGTTGGGACTGCCTATACGGAGTCACCTAGTGCAG”: the binding signal was 11100 fluorescence intensity (a.u.).

Turning to “TTTTTGTGTGTGTGCTGTGTTCTTGGGTTTCTTGGCAATGCGGAGTCACCTAGTGCAG”, the binding signal is 8650 fluorescence intensity (a.u.).

In the case of “TCTGTATACCGTGCACGGAATCCTTGTTTGATTTAATTCACGGAGTCACCTAGTGCAG”, the binding signal is 8520 fluorescence intensity (a.u.).

For “TGTAACTGTTGTAATATTCCATTGTATTTGATTAAAGACACGGAGTCACCTAGTGCAG”, the binding signal is 8080 fluorescence intensity (a.u.).

For “CAGTTATTTGCTCTAACTTATGATGTTTCTTTCTTCAAATCGGAGTCACCTAGTGCAG”, the binding signal was 8600 fluorescence intensity (a.u.).

Turning to “GCACCACCATCTCGCATCATTTGTTTTTTCTCCCTGGAAACGGAGTCACCTAGTGCAG”, the binding signal was 12000 fluorescence intensity (a.u.).

Turning to “GGTCTCTCTTCTTCTAGAGTTCGATTTCCTCTTTTTATCACGGAGTCACCTAGTGCAG”, the binding signal was 11500 fluorescence intensity (a.u.).

Regarding “TCCAAATTCGACTCCTCTTTCCATACGTACACAATCCCTCCGGAGTCACCTAGTGCAG”, the binding signal was 9150 fluorescence intensity (a.u.).

For the sequence “ATCGCCTCCGGTGTTCTGTTCCTGCTTCTCCTCGTTGTGTCGGAGTCACCTAGTGCAG”, the binding signal is 10800 fluorescence intensity (a.u.).

For “TCAATTTTATCACTTTCCCAACTCACCTCTCTCATCTTTCCGGAGTCACCTAGTGCAG”, the binding signal is 9300 fluorescence intensity (a.u.).

Turning to “GGCATGGAACTGTTATATCCAATCTGTTCATTTGTTACTGCGGAGTCACCTAGTGCAG”, the binding signal was 8660 fluorescence intensity (a.u.).

Regarding “ACAGCCGTTAGCCCTCGCCGTCAATCGCAAACCCTCACACCGGAGTCACCTAGTGCAG”, the binding signal was 9410 fluorescence intensity (a.u.).

Turning to “CCTCCTCTCCCTTTTCTGCTGTTTCTCTCTCTCACACACTCGGAGTCACCTAGTGCAG”, the binding signal was 8470 fluorescence intensity (a.u.).

“TCTATACTAGTTGCCCGCTTGCAATCCTAATGGTGAAATCCGGAGTCACCTAGTGCAG”: the binding signal was 10300 fluorescence intensity (a.u.).

Regarding “CGCCGTCGTCATCTGTCCACGATATTTTTCTGGTGTTAAACGGAGTCACCTAGTGCAG”, the binding signal is 11900 fluorescence intensity (a.u.).

As for “ATGGGTTGAGCGAGCCTCTTGCATTTGCCTATCTAGAAATCGGAGTCACCTAGTGCAG”, the binding signal was 9070 fluorescence intensity (a.u.).

Turning to “TTCCTTCAAATCCAGATTCTAATTAATTTGTTCCTTTCGTCGGAGTCACCTAGTGCAG”, the binding signal is 9810 fluorescence intensity (a.u.).

Regarding “ACATAAGCATTAGGGCTAAAGTGCAACCTAATATGTTGCTCGGAGTCACCTAGTGCAG”, the binding signal is 8420 fluorescence intensity (a.u.).

For “CTCGCCACCGGGGCCGCCATACAATTACCTCCATAAATCTCGGAGTCACCTAGTGCAG”, the binding signal was 9010 fluorescence intensity (a.u.).

For “CTAACATAACTATTTGCACTTTTTTTTGTATGTACATCATCGGAGTCACCTAGTGCAG”, the binding signal was 10900 fluorescence intensity (a.u.).

Take “ATCCTGCTCCGCCGCGACTTCGTCTTCGTCCTCCTCCGATCGGAGTCACCTAGTGCAG”: the binding signal was 8820 fluorescence intensity (a.u.).

In the case of “CGATGTGGGTTGCTTTTGCTGCAACGGTCGTGTTTCCAGACGGAGTCACCTAGTGCAG”, the binding signal is 9070 fluorescence intensity (a.u.).

Turning to “AAACATTTTATAGATTTTCTTCCACCTAGGCATGCTTTTTCGGAGTCACCTAGTGCAG”, the binding signal is 9090 fluorescence intensity (a.u.).

As to “ATGGAGGGAGTATTAATTATCGTAATTAGCATTATTTTTTCGGAGTCACCTAGTGCAG”, the binding signal is 8190 fluorescence intensity (a.u.).

For “TTCCTCACCGGCCACGCCTCTCTCGCCACGCCTCTTCTCCCGGAGTCACCTAGTGCAG”, the binding signal is 8290 fluorescence intensity (a.u.).

“AATGGTTTTATTGGTTTCAGTTTTATCTCTCAGTTTCTAACGGAGTCACCTAGTGCAG”: the binding signal is 8700 fluorescence intensity (a.u.).

In the case of “ATACACGACGCTATATTCAATTGTACTGTGCTGAATTTAACGGAGTCACCTAGTGCAG”, the binding signal is 9720 fluorescence intensity (a.u.).

As to “GGCCATCGAGTCGTTTTCCGTTCCAACATCAACCAACAAGCGGAGTCACCTAGTGCAG”, the binding signal is 9300 fluorescence intensity (a.u.).

As to “CCCACTCCGTTGTTGTTTCCTACCTGTACTGTATCGCGCGCGGAGTCACCTAGTGCAG”, the binding signal was 9380 fluorescence intensity (a.u.).

Consider “GGCCCAACTAAGCAACCCTTTTCTTTTGGAAAAAGTATACCGGAGTCACCTAGTGCAG”, for which the binding signal was 9310 fluorescence intensity (a.u.).

“GAACAAGGGGACGTTTTTGTTTGTTTGCTCTCGTGCCTTTCGGAGTCACCTAGTGCAG”: the binding signal is 14900 fluorescence intensity (a.u.).

Consider “TCTCGCTCTCGCCATCTGCTGCTTGCCACCACCACATCGTCGGAGTCACCTAGTGCAG”, for which the binding signal was 8380 fluorescence intensity (a.u.).

Take “CTTCTATTTTCTTTCTGCTCTTCTCTTCTCTTGTCTACTTCGGAGTCACCTAGTGCAG”: the binding signal is 10300 fluorescence intensity (a.u.).

As to “AATTCCCATTTCCGTCACGACTCTGACTGCCCTCGCTAATCGGAGTCACCTAGTGCAG”, the binding signal was 8400 fluorescence intensity (a.u.).

In the case of “ACCGCCGCTTTGTTTGCAGCTCGCGCTTCCTGTCGACATGCGGAGTCACCTAGTGCAG”, the binding signal is 9320 fluorescence intensity (a.u.).

Regarding “CTCCTCGCCAACCACACCACATCTCAAACTCTCTACACACCGGAGTCACCTAGTGCAG”, the binding signal is 10200 fluorescence intensity (a.u.).

Turning to “CTCTCGTCTCATCTTCTTCCTCAACTCTCTTCTCATATCTCGGAGTCACCTAGTGCAG”, the binding signal was 8780 fluorescence intensity (a.u.).

As to “ATACACATATTATCTCACAATACATGCATCGATTAAAATACGGAGTCACCTAGTGCAG”, the binding signal was 8040 fluorescence intensity (a.u.).

As to “CACACTGTCATGTTCCTCTGACCAAACAGCACAAGGTTGCCGGAGTCACCTAGTGCAG”, the binding signal was 8210 fluorescence intensity (a.u.).

Turning to “GATTTTTATTTTACAAATATGTCGTTTTGTTTTGTTCATTCGGAGTCACCTAGTGCAG”, the binding signal was 10000 fluorescence intensity (a.u.).

Regarding “GCCTGGGATGAGAATGGTGTGTTTATTTACACTACCCTGACGGAGTCACCTAGTGCAG”, the binding signal was 10300 fluorescence intensity (a.u.).

“CCCGTGCCACCGTATCATTCACTCCTCCCGTCCCTATCGCCGGAGTCACCTAGTGCAG”: the binding signal is 9270 fluorescence intensity (a.u.).
